PubChem BioAssay AID1671195, Yale University – 2021
Screen: 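Regulators of LDL receptor activity judged by labelled LDL uptake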 (primary screen). System: human Huh7 hepatoma cells. Reagent: siRNA pool against human genes, 18 nM. Timing: about 2 to 2.5 days of knockdown, then 8 h LDL uptake. Challenge: DiI-labelled LDL at 30 µg/ml for 8 h, in lipoprotein-deficient serum medium. Detection: 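Per-cell DiI-LDL intensity by automated imaging; well means scaled to the plate median and given as a robust z-score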. Scale: robust z-score: higher = more LDL uptake after knockdown. Hit rule: 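a gene counts as active if at least two replicate z-scores exceed ±2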.
In all, the deposit lists about 22,000 reagents; shown is an unselected part. Over the whole deposit, about 1,510 (6.9%) got an active call. 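Active includes knockdowns raising or lowering LDL uptake; positive z-scores mean more uptake, negative mean less.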 Reagents against one gene are numbered here.

| Target gene | pool no. | robust z-score, replicate 1 | robust z-score, replicate 2 | robust z-score, replicate 3 | activity call |
| --- | --- | --- | --- | --- | --- |
| TAF1 | 1 | -1.29 | -1.59 | -1.29 | inactive |
| IRX5 | 1 | 0.178 | -0.526 | -1.23 | inactive |
| CCN4 | 1 | 2.57 | 0.818 | 1.71 | inactive |
| SNAI2 | 1 | -1.26 | -0.525 | -0.916 | inactive |
| ARMCX5 | 1 | -0.424 | -0.761 | -0.762 | inactive |
| PRPF40A | 1 | -1.26 | -1.11 | -1.26 | inactive |
| LOC440706 (retired record) | 1 | -0.513 | -0.302 | -0.486 | inactive |
| NHLH1 | 1 | 0.289 | 0.0729 | 0.093 | inactive |
| POC5-DT | 1 | -0.615 | -0.498 | -0.673 | inactive |
| MRPL51 | 1 | 1.8 | 1.54 | 1.5 | inactive |
| FDXR | 1 | 0.0285 | 1.01 | 0.0253 | inactive |
| CTSW | 1 | 0.0978 | -0.64 | -0.0672 | inactive |
| BHMT2 | 1 | 0.0851 | 0.741 | 0.418 | inactive |
| EDNRA | 1 | 0.821 | 2.18 | 2.45 | active |
| PCDHB8 | 1 | -0.421 | -0.371 | -0.663 | inactive |
| LOC442626 (retired record) | 1 | 1.03 | 0.245 | -0.0925 | inactive |
| RASSF9 | 1 | -2.12 | -1.98 | -1.97 | active |
| NINL | 1 | -1.39 | -0.412 | -1.05 | inactive |
| RNPC3 | 1 | 0.632 | 1.91 | -0.185 | inactive |
| TRIB2 | 1 | 0.651 | 0.54 | 1.38 | inactive |
| SMCR8 | 1 | -1.18 | -1.6 | -1.07 | inactive |
| TAPBP | 1 | -0.671 | -0.751 | -0.624 | inactive |
| WHR1 | 1 | -0.158 | 0.38 | -0.561 | inactive |
| LSMEM2 | 1 | -1.47 | -1.59 | -1.16 | inactive |
| LINC02789 | 1 | -0.0888 | -0.221 | 0.0276 | inactive |
| SLC22A15 | 1 | -1.02 | -1.06 | -0.903 | inactive |
| SAR1B | 1 | -0.367 | 1.49 | 0.954 | inactive |
| RPAP3 | 1 | -0.678 | 0.917 | -0.55 | inactive |
| SOX3 | 1 | 0.0358 | 0.797 | -0.215 | inactive |
| BTBD6 | 1 | -1.52 | -1.52 | -0.871 | inactive |
| ARHGAP36 | 1 | 0.557 | 0.432 | 0.278 | inactive |
| KCNJ3 | 1 | 0.849 | -0.124 | 1.31 | inactive |
| JAG2 | 1 | -1.06 | -1.53 | -1.56 | inactive |
| EHMT1 | 1 | 1.58 | 4.75 | 2.37 | active |
| SMARCAL1 | 1 | -0.749 | -1.05 | -1.07 | inactive |
| MTMR1 | 1 | 0.303 | 0.327 | 0.477 | inactive |
| LYN | 1 | -1.03 | -0.304 | -0.732 | inactive |

10 entries already listed, arranged by “robust z-score, replicate 3”, highest first:
| Target gene | pool no. | robust z-score, replicate 1 | robust z-score, replicate 2 | robust z-score, replicate 3 | activity call |
| --- | --- | --- | --- | --- | --- |
| TRIB2 | 1 | 0.651 | 0.54 | 1.38 | inactive |
| SAR1B | 1 | -0.367 | 1.49 | 0.954 | inactive |
| LINC02789 | 1 | -0.0888 | -0.221 | 0.0276 | inactive |
| SOX3 | 1 | 0.0358 | 0.797 | -0.215 | inactive |
| RPAP3 | 1 | -0.678 | 0.917 | -0.55 | inactive |
| WHR1 | 1 | -0.158 | 0.38 | -0.561 | inactive |
| TAPBP | 1 | -0.671 | -0.751 | -0.624 | inactive |
| SLC22A15 | 1 | -1.02 | -1.06 | -0.903 | inactive |
| SMCR8 | 1 | -1.18 | -1.6 | -1.07 | inactive |
| LSMEM2 | 1 | -1.47 | -1.59 | -1.16 | inactive |

The listing continues.
| Target gene | pool no. | robust z-score, replicate 1 | robust z-score, replicate 2 | robust z-score, replicate 3 | activity call |
| --- | --- | --- | --- | --- | --- |
| MAP1LC3BP1 | 1 | -0.481 | -0.788 | -0.313 | inactive |
| CIART | 1 | -0.532 | -0.159 | -0.677 | inactive |
| POLM | 1 | 0.349 | -0.239 | 0.181 | inactive |
| LOC389173 (retired record) | 1 | -0.841 | -1.14 | -0.415 | inactive |
| SERHL | 1 | 1.36 | 1.18 | 1 | inactive |
| ARHGAP23 | 1 | -1.68 | -1.98 | -2.29 | active |
| NR2C1 | 1 | -0.072 | -1.07 | -0.367 | inactive |
| SLC6A3 | 1 | -0.887 | -1.05 | -0.743 | inactive |
| PHTF1 | 1 | 0.532 | -0.408 | 1.12 | inactive |
| CHN1 | 1 | 0.259 | 1.93 | 1.09 | inactive |
| P3H4 | 1 | 0.175 | 0.463 | -0.202 | inactive |
| TMEM52 | 1 | 1.3 | 1.61 | 1.62 | inactive |
| UGT1A7 | 1 | -1.32 | -1.49 | -0.938 | inactive |
| ZNF33B | 1 | -0.794 | -0.532 | -0.815 | inactive |
| DPY19L3 | 1 | 0.641 | -0.23 | 0.933 | inactive |
| DPY19L3 | 2 | -0.616 | -1.11 | 0.119 | inactive |
| CMKLR1 | 1 | -0.632 | -1 | -0.631 | inactive |
| FSD1L | 1 | 1.93 | 0.855 | 3.15 | inactive |
| FSD1L | 2 | 1.02 | 0.786 | 0.638 | inactive |
| ZBTB47 | 1 | 0.0651 | 1.13 | 1.43 | inactive |
| RPL13AP24 | 1 | -1.52 | -1.74 | -1.25 | inactive |
| LOC390896 (retired record) | 1 | -0.816 | -0.739 | 0.138 | inactive |
| LYG1 | 1 | 0.0491 | -0.601 | -1.04 | inactive |
| OGDHL | 1 | -0.276 | -0.00591 | -0.78 | inactive |
| LOXL1 | 1 | -1.25 | -0.778 | -1.21 | inactive |
| TPRKB | 1 | -0.855 | -1.64 | -1.25 | inactive |
| NPIPB7 | 1 | 0.697 | 0.501 | 0.392 | inactive |
| GSDME | 1 | -0.0897 | 0.429 | -1.25 | inactive |
| TAS2R10 | 1 | 0.394 | -0.95 | 0.125 | inactive |
| ORAI2 | 1 | 0.451 | 0.21 | -0.459 | inactive |
| ZNF516 | 1 | 1.11 | 0.981 | 0.911 | inactive |
| WBSCR23 | 1 | -1.2 | -1.33 | -1.02 | inactive |
| OFCC1 | 1 | -0.173 | -0.401 | -0.295 | inactive |
| TAS1R2 | 1 | -0.103 | -0.285 | 0.0626 | inactive |
| C2CD4A | 1 | 2.65 | 1.63 | 1.12 | inactive |
| SREBF1 | 1 | 1.01 | 0.906 | 0.894 | inactive |
| TNFAIP2 | 1 | -0.534 | -1.66 | 0.902 | inactive |
| BTD | 1 | 0.614 | 0.77 | 1.39 | inactive |
| TMEM86A | 1 | -0.782 | -0.202 | -0.757 | inactive |
| COPB2 | 1 | -0.764 | -0.825 | -0.08 | inactive |
| LOC401913 | 1 | -1.23 | -1.17 | -1.73 | inactive |
| IQSEC1 | 1 | -0.075 | 1.1 | 2.76 | inactive |
| MYO1E | 1 | -1.1 | -1.04 | -0.823 | inactive |
| MAN2B1 | 1 | -0.583 | -0.449 | -0.867 | inactive |
| SOD3 | 1 | 1.88 | 1.19 | 1.57 | inactive |
| BORCS8-MEF2B | 1 | -0.0283 | 0.835 | 0.0171 | inactive |
| KCNJ10 | 1 | -0.522 | -0.942 | -0.195 | inactive |
| TMSB10 | 1 | 0.996 | 0.198 | 1.79 | inactive |
| DEFA4 | 1 | -0.784 | -0.000111 | -1.83 | inactive |
| HOGA1 | 1 | -0.248 | 0.702 | 0.492 | inactive |
